This passage reports binding results from publication PMC8396604.

By UniProt entry, the sequences of proteins in these tests, tags left out.
UniProt P80206: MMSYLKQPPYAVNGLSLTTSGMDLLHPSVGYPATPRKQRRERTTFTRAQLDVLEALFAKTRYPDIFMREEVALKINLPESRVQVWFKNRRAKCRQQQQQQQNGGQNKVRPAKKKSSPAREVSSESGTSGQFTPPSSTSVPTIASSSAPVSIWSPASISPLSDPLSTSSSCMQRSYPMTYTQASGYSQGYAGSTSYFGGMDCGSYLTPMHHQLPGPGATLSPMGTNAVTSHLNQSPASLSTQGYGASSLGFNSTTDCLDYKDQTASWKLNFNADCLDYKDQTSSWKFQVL

Results are given in words; binding and its absence hold for the method and conditions named. In cells and extracts the contact can be indirect. A yes stands for co-enrichment or nearness to the bait. Other partners may have been found.

The experiment deals with OTX2 homeoprotein (mouse (endogenous in adult mouse brain tissue)) (UniProt P80206). In words: affinity purification with mass spectrometry; anti-OTX2 (ab21990) coupled to magnetic beads, lysate of pooled LV and 4V choroid plexus from four 3-month-old mice; 100 mM Tris pH 7.5, 1 mM EDTA, 100 mM NaCl, 1% NP40, 1 mM MgCl2, benzonase; 4 °C overnight; IgG co-IP as control; nano-LC-MS/MS; N = 3.

B1: LIG3 (protein, UniProt P97386 1-1015)
chain: MTLAFKILFPRNLCALGRKELCLFPEQNRWAAISQFSQWSETNLLGGCCLLQRRKPVLALQRGHLRPRATHLTFWPGSHVGLCTGPCAMAEQRFCVDYAKRGTAGCKKCKEKIVKGVCRIGKVVPNPFSESGGDMKEWYHIKCMFEKLERARATTKKIEDLTELEGWEELEDNEKEQISQHIADLSSKAAATPKKKAAVQAKLTTTGQVTSPVKGASFITSTNPRKFSGFSAAKPNNSEQAPSSPAPGTSLSASKCDPKHKDCLLREFRKLCAMVAENPSYNTKTQIIHDFLQKGSTGGFSDGFHGDVYLTVKLLLPGVIKSVYNLNDKQIVKLFSRIFNCNPDDMARDLEQGDVSETIRIFFEQSKSFPPAAKSLLTIQEVDAFLLHLSKLTKEDEQQQALQDIASRCTANDLKCIIRLIKHDLKMNSGAKHVLDALDPNAYEAFKASRNLQDVVERVLHNEQEVEKDPGRRRALRVQASLMTPVQPMLAEACKSIEYAMKKCPNGMFSEIKYDGERVQVHKKGDHFSYFSRSLKPVLPHKVAHFKDYIPKAFPGGQSMILDSEVLLIDNNTGKPLPFGTLGVHKKAAFQDANVCLFVFDCIYFNDVSLMDRPLCERRKFLHDNMVEIRNRIMFSEMKQVTKASDLADMINRVIREGLEGLVLKDVKGTYEPGKRHWLKVKKDYLNEGAMADTADLVVLGAFYGQGSKGGMMSIFLMGCYDPDSQKWCTVTKCAGGHDDATLARLQKELVMVKISKDPSKIPSWLKINKIYYPDFIVPDPKKAAVWEITGAEFSRSEAHTADGISIRFPRCTRIRDDKDWKSATNLPQLKELYQLSKDKADFAVVAGDEASPTTGGSSGENEGTAGSAGPCKGPPSKSSASAKTTEQKLNSPSSRGGIKPIPKHSPMKPGEKLAVKSSPVKVGMKRKATDETPCLKKVLLDVFTGVRLYLPPSTPDFKRLKRYFVAFDGDLVQEFDMGSATHVLGNREKNTDAQLVSSEWIWACIRKRRLIAPC
B1: the binding entry is recorded as “binds”.

B2: MOV10 (protein, UniProt P23249 1-1004)
chain: MPSKFSCRKLRETGQRFESFLAERGLDLETDRERLRTIYNHDFKPSYGTPAPGFSSMLYGMKIANLAFVTKTRVRFFKLDRWADVQLPEKRRIKPGSNISKQHRSLLARIFHDRAEYLHGKHGVDVEVQGPHEARDGQLLIHLDLNRKEVLTLRLRNGGSKPVTLTHLFPLCWTPQFVFYHGEQDLPCPLGPGESYELHIYCKTSIVGYFPATVLWELLGPGESGAEGAETFYIARFLAAVAHSPLAAQLKPTTPFKRPPRLTRNSVLTNRIEEGERPDRAKGYELELSLALGTYYPPILLRQLLPTLLQGPSIFTAPKEVAEIKAQLETTLKSRNYEVKLRLLLHLEELQMEHDIRHYDLDSVPMTWDPVDQNPRLLTLEVPGVAESRPSVLRGDHLFALLSSETQQDDPVTYKGFVHKVELDRVKLSFSTSLLSRFVDGLTFKVNFTFNRQPLRVQHRALELTGRWVLWPMLFPVASRGVSLLPSDVKFKLYDRSLESNPEQLQAMKHIVRGTTRPAPYIIFGPPGTGKTVTLVEAIKQVVKHLPKAHILACAPSNSGADLLCQRLRVHLPSSIYRLLAPSRDIRMVPEDIKTCCNWDAKKGEYVYPAKKHLQQYRVLITTLITASRLVSAQFPIDHFTHIFIDEAGHCMEPESLVAIAGLMDVKETGNPGGQLVLAGDPRQLGPVLRSPLALKHGLGYSLLERLLAYNSLYKKGPNGYDPQFITKLLRNYRSHPTILDIPNQLYYDGELQACADVVDRERFCRWEGLPQQGFPIIFHGVMGKDEREGNSPSFFNPEEAATVTSYLKQLLAPSSKKGKARLSPRNVGVISPYRKQVEKIRYCITKLDRELRGLDDIKDLKVGSVEEFQGQERSVILISTVRSSQSFVQLDLDFNLGFLKNPKRFNVAVTRAKALLIVVGNPLLLGHDPDWKTFLEFCKENGGYTGCPFPAKLDLQQGQDLLQGLSKLSPSTSGPRRHQNLPQEREGEGGLPLQVEPEWRNEL
As to B2, the binding entry is on record as “binds”.

B3: MLYCD (protein, UniProt Q99J39 39-492)
chain: MDELLRRAVPPTPAYELREKTPAPAEGQCADFVSFYGGLAEASQRAELLGRLAQGFGVDHGQVAEQSAGVLQLRQQAREAAVLLQAEDRLRYALVPRYRGLFHHISKLDGGVRFLVQLRADLLEAQALKLVEGPHVREMNGVLKSMLSEWFSSGFLNLERVTWHSPCEVLQKISECEAVHPVKNWMDMKRRVGPYRRCYFFSHCSTPGEPLVVLHVALTGDISNNIQGIVKECPPTETEERNRIAAAIFYSISLTQQGLQGVELGTFLIKRVVKELQKEFPQLGAFSSLSPIPGFTKWLLGLLNVQGKEHGRNELFTDSECQEISAVTGNPVHESLKGFLSSGEWVKSEKLTQALQGPLMRLCAWYLYGEKHRGYALNPVANFHLQNGAVMWRINWMADSSLKGLTSSCGLMVNYRYYLEETGPNSISYLGSKNIKASEQILSLVAQFQNNSKL
As to B3, the binding result is reported as “binds”.
